Reference: EP0360481B1, “New pentapeptide and a process for the preparation thereof” (Hafslund Nycomed AS, priority 1988, dated 1990)
At least one peptide structure holds a part that was inferred or is arguable (an end, a ring closure or a residue). Non-standard residues stand in square brackets, D forms with d. Residues, ends and D or L forms follow the SMILES beside them. pGlu = O=C1CC[C@@H](C(=O)O)N1

Tests used:
regenerating liver [1] = assay: Regenerative increase of liver weight after 70% hepatectomy; type: in vivo, mice; conditions: for Liver wet weight % of control: daily i.p. in saline, day 4 after 70% hepatectomy, N = 8 ± SD
[2] = tested on: MH₁C₁, a clonal strain from a Morris transplantable hepatoma; assay: DNA synthesis and proliferation of hepatoma cell strain in vitro; type: cell-based, rat
[3] = tested on: rat hepatoma cells (MH₁C₁); assay: Lung metastases after i.v. injection of hepatoma cells; type: in vivo, Buffalo female rats; conditions: for Weight of lung + metastases % of controls: 10⁴ MH₁C₁ cells i.v., wet weight, N = 8 ± SD; for Tumor weight, % of control: weight of normal lung tissue subtracted
rat hepatoma cells = assay: Total number of rat hepatoma cells in vitro; type: cell-based; conditions: 72 hours after the peptide addition; for Total number of cells % of controls: N = 6 ± SD
liver = assay: Mitotic rate after CCl₄ intoxication; type: in vivo; conditions: four hours after treatment, 48 hours after CCl₄ intoxication; for Mitotic rate % of controls: N = 3 ± SD
regenerating liver [4] = assay: Mitotic rate after 70% hepatectomy; type: in vivo; conditions: mice, 5 hours after administration; for Mitotic rate % of controls: N = 6 ± SD

NC(=O)CC[C@H](NC(=O)[C@@H]1CCC(=O)N1)C(=O)NCC(=O)N[C@@H](CO)C(=O)N[C@@H](CC(N)=O)C(=O)O [Compound A, pGlu-Gln-Gly-Ser-β-Asn] ([pGlu]QGSN-OH)
Liver wet weight % of control (regenerating liver [1]; 1 pmole of peptide per animal): 101 ± 7 % of control | Liver wet weight % of control (regenerating liver [1]; 10 pmole of peptide per animal): 79 ± 6 % of control | Liver wet weight % of control (regenerating liver [1]; 100 pmole of peptide per animal): 77 ± 5 % of control | regenerative increase of liver weight (regenerating liver [1]; mice after 70% hepatectomy, injected daily i.p. in saline): inhibited | DNA synthesis of MH₁C₁ [2]: inhibits | proliferation of MH₁C₁ [2]: inhibits

NC(=O)C[C@H](NC(=O)[C@H](CO)NC(=O)CNC(=O)[C@H](CCC(=O)O)NC(=O)[C@@H]1CCC(=O)N1)C(=O)O [Compound B, pGlu-Glu-Gly-Ser-β-Asn] ([pGlu]EGSN-OH)
Weight of lung + metastases % of controls ([3]; 2 pmole per animal i.p. three times per week (12 injections), four weeks): 55 ± 37 % of controls | Tumor weight, % of control ([3]; 2 pmole per animal): 45 % of control | Weight of lung + metastases % of controls ([3]; 20 pmole per animal i.p. three times per week (12 injections), four weeks): 54 ± 24 % of controls | Tumor weight, % of control ([3]; 20 pmole per animal): 43 % of control | Weight of lung + metastases % of controls ([3]; 200 pmole per animal i.p. three times per week (12 injections), four weeks): 42 ± 8 % of controls | Tumor weight, % of control ([3]; 200 pmole per animal): 29 % of control | weight of the lung (lung + metastases), % of the controls ([3]; four weeks): about 40% | metastasis spreading to the lungs ([3]; treated groups, three different concentrations): great reduction | total number of rat hepatoma cells, % of the controls (rat hepatoma cells; in vitro): about 70% | Total number of cells % of controls (rat hepatoma cells; peptide concentration log M - 8): 80 ± 7 % of controls | Total number of cells % of controls (rat hepatoma cells; peptide concentration log M -11): 71 ± 5 % of controls | Total number of cells % of controls (rat hepatoma cells; peptide concentration log M -14): 79 ± 6 % of controls | Mitotic rate % of controls (liver; 1 pmole per animal): 90 ± 13 % of controls | Mitotic rate % of controls (liver; 10 pmole per animal): 49 ± 10 % of controls | Mitotic rate % of controls (liver; 100 pmole per animal): 74 ± 12 % of controls | mitotic rate, % of the rate in the controls (liver): about 50% | Mitotic rate % of controls (regenerating liver [4]; 1 pmole per animal): 52 ± 9 % of controls | Mitotic rate % of controls (regenerating liver [4]; 10 pmole per animal): 39 ± 11 % of controls | Mitotic rate % of controls (regenerating liver [4]; 100 pmole per animal): 37 ± 9 % of controls | mitotic rate, % of the mitotic rate of the controls (regenerating liver [4]): about 40%
